Measurements published in article PMC9480851.
Results are given in words; binding and its absence hold for the method and conditions named. Binding seen in cells or lysates may run through a third protein. Some entries that bind do so weakly or less than the wild type.

Chains of the proteins cited; added tags and fusions are not shown.
UniProt Q6MZP7: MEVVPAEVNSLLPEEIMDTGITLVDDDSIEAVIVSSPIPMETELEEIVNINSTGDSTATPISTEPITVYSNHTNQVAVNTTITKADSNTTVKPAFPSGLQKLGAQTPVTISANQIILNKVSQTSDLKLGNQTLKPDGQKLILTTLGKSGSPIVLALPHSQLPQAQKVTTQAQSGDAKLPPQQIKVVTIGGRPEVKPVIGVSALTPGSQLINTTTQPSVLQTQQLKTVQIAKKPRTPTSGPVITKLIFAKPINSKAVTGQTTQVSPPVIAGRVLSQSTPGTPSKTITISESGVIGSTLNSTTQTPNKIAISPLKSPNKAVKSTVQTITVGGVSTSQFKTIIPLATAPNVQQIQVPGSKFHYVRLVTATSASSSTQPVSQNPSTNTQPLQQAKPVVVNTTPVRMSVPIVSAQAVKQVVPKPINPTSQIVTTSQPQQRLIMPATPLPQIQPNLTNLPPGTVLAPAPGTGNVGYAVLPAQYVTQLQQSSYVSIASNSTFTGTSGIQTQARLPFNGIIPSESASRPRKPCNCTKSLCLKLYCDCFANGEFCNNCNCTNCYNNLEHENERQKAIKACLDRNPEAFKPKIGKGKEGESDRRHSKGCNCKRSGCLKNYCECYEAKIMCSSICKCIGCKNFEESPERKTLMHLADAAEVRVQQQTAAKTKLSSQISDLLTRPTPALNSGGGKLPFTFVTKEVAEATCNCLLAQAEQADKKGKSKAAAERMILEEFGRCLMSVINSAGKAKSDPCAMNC
UniProt Q08999: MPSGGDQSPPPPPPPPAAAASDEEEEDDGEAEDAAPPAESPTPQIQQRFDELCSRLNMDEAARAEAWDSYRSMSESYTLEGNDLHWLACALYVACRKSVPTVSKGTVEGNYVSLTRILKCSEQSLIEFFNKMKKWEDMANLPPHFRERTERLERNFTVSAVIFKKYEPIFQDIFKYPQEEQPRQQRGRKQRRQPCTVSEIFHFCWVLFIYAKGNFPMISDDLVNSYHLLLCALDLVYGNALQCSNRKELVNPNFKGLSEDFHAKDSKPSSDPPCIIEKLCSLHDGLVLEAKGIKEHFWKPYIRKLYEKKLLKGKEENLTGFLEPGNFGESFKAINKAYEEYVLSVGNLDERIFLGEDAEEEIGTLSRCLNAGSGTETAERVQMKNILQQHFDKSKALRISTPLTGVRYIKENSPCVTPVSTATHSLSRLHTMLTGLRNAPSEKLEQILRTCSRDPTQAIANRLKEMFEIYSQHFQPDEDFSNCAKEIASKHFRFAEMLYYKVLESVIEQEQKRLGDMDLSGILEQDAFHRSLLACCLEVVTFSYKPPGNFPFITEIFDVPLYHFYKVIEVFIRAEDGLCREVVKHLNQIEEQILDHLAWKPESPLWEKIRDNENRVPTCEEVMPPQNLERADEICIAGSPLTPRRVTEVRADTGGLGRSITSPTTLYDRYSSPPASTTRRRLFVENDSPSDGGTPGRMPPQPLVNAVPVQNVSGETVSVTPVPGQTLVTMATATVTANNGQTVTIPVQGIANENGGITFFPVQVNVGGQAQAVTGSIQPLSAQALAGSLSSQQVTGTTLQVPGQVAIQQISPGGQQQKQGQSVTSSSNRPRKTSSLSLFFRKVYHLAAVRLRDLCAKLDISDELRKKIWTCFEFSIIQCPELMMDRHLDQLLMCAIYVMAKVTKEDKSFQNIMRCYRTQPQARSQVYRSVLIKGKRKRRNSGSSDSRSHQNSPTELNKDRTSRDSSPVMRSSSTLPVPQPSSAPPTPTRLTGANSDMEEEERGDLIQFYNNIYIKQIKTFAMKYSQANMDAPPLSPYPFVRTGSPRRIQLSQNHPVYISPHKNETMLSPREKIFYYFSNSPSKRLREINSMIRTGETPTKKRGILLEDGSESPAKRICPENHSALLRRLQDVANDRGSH

Target: Lin54 subunit of the DREAM complex (human (endogenous in 1BR3-hTERT)) (UniProt Q6MZP7)
Test: co-IP; endogenous proteins in lysates of 1BR3-hTERT parental, PBRM1 KO and PBRM1 KO rescue cells, after irradiation; antibody on protein G Dynabeads, 2500 ug total protein, IP lysis buffer (50 mM Tris pH 7.5, 150 mM NaCl, 0.5% NP-40, 3 mM MgCl2, benzonase), overnight at 4°C; Western blot

binding: binds
Substance: p130 pocket protein (from UniProt Q08999 1-1139)
